Laboratory results published in the supplement of paper PMC10849652.
Some of the results follow.

Chains of the proteins cited; added tags and fusions are not shown. Lines headed by an entry give the natural chain unless they say otherwise; changes in a name come on top.
UniProt O00469: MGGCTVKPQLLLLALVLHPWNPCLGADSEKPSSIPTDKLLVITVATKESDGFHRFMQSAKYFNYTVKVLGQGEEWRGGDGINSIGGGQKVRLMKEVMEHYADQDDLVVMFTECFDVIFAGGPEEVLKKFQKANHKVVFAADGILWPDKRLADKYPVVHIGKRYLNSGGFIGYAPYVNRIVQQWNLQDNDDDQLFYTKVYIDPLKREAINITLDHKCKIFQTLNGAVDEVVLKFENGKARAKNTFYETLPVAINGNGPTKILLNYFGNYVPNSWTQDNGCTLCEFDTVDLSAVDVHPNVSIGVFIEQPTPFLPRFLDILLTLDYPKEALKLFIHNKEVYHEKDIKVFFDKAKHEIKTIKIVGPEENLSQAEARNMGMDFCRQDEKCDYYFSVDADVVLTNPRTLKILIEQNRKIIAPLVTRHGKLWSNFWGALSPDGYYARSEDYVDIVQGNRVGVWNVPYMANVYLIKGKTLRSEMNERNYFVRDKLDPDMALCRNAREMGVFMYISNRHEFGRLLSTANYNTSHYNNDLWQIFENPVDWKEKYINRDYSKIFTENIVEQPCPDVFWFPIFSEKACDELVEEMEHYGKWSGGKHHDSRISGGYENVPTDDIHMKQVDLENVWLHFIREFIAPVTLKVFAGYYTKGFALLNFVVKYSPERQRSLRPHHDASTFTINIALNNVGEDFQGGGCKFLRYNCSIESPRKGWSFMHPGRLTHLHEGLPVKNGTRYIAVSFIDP
UniProt O75145: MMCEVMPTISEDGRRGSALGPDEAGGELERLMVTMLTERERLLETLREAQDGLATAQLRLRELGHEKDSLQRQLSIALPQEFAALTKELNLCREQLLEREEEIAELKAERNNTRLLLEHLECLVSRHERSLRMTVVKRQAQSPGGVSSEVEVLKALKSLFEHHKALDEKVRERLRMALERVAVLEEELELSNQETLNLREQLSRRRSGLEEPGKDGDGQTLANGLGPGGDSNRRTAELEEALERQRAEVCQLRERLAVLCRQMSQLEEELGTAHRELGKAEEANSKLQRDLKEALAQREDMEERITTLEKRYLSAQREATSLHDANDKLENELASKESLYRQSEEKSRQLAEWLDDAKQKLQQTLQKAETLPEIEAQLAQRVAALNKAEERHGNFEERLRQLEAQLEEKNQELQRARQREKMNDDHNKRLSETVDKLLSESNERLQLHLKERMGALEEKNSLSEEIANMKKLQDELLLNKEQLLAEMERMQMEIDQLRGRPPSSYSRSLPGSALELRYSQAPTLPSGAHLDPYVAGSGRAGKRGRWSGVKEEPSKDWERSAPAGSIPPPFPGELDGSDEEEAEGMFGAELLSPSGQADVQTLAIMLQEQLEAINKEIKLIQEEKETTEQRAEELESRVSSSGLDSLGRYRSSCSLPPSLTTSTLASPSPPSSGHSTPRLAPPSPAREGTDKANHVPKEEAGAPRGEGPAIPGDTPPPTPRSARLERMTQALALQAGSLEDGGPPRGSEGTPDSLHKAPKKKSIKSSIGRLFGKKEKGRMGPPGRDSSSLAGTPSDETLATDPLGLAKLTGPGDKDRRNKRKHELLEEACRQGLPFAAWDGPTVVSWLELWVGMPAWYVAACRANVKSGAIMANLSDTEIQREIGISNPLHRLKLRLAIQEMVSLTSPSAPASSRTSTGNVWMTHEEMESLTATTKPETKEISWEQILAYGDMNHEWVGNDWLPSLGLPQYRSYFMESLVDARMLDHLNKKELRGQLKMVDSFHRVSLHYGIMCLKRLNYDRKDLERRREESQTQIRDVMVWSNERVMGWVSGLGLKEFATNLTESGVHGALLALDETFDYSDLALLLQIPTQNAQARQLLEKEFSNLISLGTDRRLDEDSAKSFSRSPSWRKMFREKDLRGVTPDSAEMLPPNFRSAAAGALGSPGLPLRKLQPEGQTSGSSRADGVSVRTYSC
UniProt Q9NRY6: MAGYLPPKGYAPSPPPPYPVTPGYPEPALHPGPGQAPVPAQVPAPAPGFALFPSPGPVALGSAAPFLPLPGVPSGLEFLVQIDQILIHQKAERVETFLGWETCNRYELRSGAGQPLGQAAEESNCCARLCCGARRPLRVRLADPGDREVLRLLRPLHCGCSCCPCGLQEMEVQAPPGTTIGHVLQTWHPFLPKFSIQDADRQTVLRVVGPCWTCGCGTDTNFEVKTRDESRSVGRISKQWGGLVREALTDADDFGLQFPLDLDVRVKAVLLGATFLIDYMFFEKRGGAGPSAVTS
UniProt Q8IY17: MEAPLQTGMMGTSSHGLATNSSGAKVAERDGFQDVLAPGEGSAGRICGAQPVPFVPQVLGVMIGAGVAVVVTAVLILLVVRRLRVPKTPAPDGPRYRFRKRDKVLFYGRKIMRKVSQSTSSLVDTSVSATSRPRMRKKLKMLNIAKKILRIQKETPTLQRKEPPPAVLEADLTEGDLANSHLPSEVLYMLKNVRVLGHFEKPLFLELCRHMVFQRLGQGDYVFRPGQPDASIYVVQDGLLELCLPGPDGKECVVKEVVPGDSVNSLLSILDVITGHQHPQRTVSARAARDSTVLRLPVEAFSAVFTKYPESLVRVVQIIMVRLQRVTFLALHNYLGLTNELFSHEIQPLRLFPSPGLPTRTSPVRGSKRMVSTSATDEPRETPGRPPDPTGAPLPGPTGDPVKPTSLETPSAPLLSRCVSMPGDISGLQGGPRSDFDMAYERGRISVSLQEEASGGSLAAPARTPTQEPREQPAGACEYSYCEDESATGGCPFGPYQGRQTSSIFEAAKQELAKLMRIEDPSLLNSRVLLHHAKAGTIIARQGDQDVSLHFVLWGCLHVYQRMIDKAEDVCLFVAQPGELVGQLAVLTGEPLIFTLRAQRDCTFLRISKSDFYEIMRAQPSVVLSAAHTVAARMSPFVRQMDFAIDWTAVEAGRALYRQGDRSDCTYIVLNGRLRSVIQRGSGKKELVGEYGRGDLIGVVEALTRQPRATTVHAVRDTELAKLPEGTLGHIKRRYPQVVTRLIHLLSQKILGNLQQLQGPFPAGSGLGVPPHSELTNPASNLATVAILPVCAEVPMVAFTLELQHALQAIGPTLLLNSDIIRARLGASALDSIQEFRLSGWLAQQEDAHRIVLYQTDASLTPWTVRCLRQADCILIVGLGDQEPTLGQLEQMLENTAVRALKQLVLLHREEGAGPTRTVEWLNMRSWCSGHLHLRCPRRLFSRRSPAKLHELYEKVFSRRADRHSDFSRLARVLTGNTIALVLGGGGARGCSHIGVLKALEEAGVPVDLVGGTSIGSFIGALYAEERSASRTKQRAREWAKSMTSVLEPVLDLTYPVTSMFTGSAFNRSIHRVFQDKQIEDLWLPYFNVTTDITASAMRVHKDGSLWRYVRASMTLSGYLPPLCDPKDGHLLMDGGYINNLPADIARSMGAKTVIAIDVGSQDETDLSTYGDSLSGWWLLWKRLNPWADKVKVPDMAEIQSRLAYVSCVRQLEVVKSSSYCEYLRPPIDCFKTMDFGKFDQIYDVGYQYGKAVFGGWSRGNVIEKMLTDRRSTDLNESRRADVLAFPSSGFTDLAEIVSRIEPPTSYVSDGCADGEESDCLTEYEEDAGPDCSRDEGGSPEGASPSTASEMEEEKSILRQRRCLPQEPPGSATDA
UniProt O43157, whole entry, looked up: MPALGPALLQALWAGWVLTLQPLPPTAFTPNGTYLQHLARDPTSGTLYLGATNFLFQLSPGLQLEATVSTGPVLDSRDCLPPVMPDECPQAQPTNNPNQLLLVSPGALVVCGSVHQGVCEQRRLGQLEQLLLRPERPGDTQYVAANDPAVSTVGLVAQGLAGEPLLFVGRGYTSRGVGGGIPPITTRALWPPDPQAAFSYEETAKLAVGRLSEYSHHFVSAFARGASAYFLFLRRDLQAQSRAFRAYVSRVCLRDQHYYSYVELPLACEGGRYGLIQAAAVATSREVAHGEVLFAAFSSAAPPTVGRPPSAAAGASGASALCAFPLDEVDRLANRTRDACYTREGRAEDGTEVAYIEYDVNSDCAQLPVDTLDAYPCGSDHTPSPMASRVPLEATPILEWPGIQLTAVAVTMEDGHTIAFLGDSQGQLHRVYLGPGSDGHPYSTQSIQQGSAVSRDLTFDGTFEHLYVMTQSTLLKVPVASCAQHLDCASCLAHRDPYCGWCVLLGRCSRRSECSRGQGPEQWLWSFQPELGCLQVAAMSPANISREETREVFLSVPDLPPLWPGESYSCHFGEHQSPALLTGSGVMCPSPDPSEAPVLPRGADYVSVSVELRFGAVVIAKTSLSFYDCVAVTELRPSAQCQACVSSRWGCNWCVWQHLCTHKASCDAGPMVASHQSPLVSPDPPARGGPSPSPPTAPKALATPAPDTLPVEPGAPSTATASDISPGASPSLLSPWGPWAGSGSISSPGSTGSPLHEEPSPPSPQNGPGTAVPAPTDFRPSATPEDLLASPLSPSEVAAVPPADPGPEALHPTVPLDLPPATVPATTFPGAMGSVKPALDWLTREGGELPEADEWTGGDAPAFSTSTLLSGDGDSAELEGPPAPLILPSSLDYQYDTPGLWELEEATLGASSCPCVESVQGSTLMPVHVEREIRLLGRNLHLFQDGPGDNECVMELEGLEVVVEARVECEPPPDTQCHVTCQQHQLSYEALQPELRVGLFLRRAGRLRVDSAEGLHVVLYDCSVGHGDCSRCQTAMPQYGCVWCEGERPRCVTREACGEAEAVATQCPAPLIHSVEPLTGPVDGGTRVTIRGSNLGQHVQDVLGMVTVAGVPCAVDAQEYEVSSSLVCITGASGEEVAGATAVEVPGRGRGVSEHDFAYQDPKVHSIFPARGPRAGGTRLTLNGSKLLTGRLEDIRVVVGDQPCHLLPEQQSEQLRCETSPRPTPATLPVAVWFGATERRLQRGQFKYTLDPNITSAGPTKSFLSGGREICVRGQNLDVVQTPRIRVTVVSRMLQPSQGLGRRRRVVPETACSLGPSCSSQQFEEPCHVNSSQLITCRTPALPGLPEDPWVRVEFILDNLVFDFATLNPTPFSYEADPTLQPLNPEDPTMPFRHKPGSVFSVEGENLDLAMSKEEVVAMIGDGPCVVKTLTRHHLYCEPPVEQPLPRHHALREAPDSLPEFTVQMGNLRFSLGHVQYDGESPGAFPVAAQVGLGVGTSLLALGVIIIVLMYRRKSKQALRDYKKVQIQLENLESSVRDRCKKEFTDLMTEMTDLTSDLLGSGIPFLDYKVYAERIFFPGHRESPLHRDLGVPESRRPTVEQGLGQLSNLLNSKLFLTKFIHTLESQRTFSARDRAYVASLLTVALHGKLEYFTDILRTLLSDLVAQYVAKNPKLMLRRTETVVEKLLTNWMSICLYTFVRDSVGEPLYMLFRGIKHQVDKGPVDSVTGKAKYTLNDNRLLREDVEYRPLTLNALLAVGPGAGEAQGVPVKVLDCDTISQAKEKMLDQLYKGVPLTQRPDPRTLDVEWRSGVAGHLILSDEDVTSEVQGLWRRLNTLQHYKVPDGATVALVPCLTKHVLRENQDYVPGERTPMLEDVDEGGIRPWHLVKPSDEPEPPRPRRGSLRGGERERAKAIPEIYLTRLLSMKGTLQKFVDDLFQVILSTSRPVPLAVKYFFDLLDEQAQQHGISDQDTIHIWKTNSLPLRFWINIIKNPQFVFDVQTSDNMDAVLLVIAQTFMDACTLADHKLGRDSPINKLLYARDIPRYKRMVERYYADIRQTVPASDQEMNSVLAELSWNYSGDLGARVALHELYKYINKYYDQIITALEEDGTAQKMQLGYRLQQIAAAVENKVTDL
UniProt Q8TD55: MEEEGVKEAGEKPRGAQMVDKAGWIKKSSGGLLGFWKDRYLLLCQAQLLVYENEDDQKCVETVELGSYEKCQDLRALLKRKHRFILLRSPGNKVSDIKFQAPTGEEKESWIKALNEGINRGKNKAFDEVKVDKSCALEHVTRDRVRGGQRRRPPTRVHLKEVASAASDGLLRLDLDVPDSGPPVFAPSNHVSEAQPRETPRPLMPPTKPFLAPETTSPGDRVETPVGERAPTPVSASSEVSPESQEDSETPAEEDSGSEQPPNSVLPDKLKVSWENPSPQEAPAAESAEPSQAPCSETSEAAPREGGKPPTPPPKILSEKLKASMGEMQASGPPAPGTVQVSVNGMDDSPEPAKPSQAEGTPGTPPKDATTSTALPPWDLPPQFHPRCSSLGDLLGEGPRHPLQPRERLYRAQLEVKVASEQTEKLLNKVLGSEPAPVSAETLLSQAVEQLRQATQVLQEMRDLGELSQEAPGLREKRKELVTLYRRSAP

Experiments:
Test in all cases: log2 fold change, soluble protein after heating vs DMSO (PISA); higher = thermal stabilisation; K562 cells, 10 uM, 30 min; active = over 0.2 and 3.5 SD of the protein, either way, in both replicates (recomputed)
[1] = compound: CC1=CC=C(C=C1)SC2=C3C=C(SC3=CN=C2)C(=O)N
Summary of the method: (§1)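 Thermal stability values are relative to control samples and come from duplicates. They are expressed as log2 fold changes. For measurement, K562 cells (2×10^6 cells/mL) received 10 μM compound for 30 min, and aliquots were heated for 3 min over 48°C-58°C, pooled, and extracted at 4°C in PBS with 0.5% NP-40. Soluble protein, the supernatant after 21,000xg for 90 min, was quantified by TMTpro 16plex LC-MS/MS with equalised channel sums.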

[2] = compound: CC1=NC(=CC=C1)C2=C(N=C(N2)C(C)(C)C)C3=CC4=NC=CN=C4C=C3
Summary of the method: as §1

[3] = compound: CCCS(=O)(=O)Nc1ccc(F)c(C(=O)c2c[nH]c3ncc(Cl)cc23)c1F
Summary of the method: as §1

[4] = compound: CCCc1cc(C)[nH]c(=O)c1CNC(=O)c1cc(-c2ccnc(N3CCN(C)CC3)c2)cc2c1cnn2C(C)C
Summary of the method: as §1

Nexturastat A = compound: CCCCN(Cc1ccc(C(=O)NO)cc1)C(=O)Nc1ccccc1 [Nexturastat A]
Summary of the method: as §1

barasertib = compound: CCN(CCCOc1ccc2c(Nc3cc(CC(=O)Nc4cccc(F)c4)[nH]n3)ncnc2c1)CCOP(=O)(O)O [barasertib]
Summary of the method: as §1

[5] = compound: CC1=C(C=C(C=C1)NC(=O)C2=CC(=CC=C2)N(C)C)NC(=O)C3=CC=C(C=C3)O
Summary of the method: as §1

vemurafenib = compound: CCCS(=O)(=O)Nc1ccc(F)c(C(=O)c2c[nH]c3ncc(-c4ccc(Cl)cc4)cc23)c1F [vemurafenib]
Summary of the method: as §1

givinostat = compound: CCN(CC)Cc1ccc2cc(COC(=O)Nc3ccc(C(=O)NO)cc3)ccc2c1 [givinostat]
Summary of the method: as §1

[6] = compound: CC1=C(C=C(C=C1)NC(=O)C2=CC(=CC=C2)C(C)(C)C#N)NC3=CC4=C(C=C3)N=CN(C4=O)C
Summary of the method: as §1

Measured: log2 fold change

PLOD2 isoform 2 (UniProt O00469)
inactive: [1] -0.135 | [2] 0.07 | [3] -0.161 | [4] -0.192

PPFIA3 (UniProt O75145)
inactive: Nexturastat A 0.017

PPM1B isoform 2 (UniProt O75688)
inactive: [4] -0.095 | barasertib -0.053

PPHLN1 (UniProt Q8NEY8)
inactive: [5] 0.064 | [1] -0.055 | [2] 0.022 | vemurafenib -0.06 | [3] -0.091 | [4] -0.092 | givinostat 0.032 | barasertib -0.033

PLSCR3 (UniProt Q9NRY6)
inactive: givinostat 0.011

PNPLA6 (UniProt Q8IY17)
inactive: [5] -0.247 | [1] 0.099 | [2] -0.017 | Nexturastat A 0.364 | vemurafenib -0.045 | [3] 0.027 | [4] 0.165 | givinostat 0.178 | barasertib 0.116

PLXNB1 (UniProt O43157)
inactive: [6] 0.057 | Nexturastat A -0.084

POLE (UniProt Q07864)
inactive: [5] -0.126 | barasertib 0.053

PLEKHO2 (UniProt Q8TD55)
inactive: [5] -0.056 | [1] 0.106 | [2] 0.052 | vemurafenib 0.063 | [3] -0.078 | [4] -0.007 | givinostat 0.071 | barasertib 0.006
